These results are taken from paper PMC5725494, “Cell cycle-dependent phosphorylation regulates RECQL4 pathway choice and ubiquitination in DNA double-strand break repair”.

Protein sequences, listed by entry. Tags and fused reporters are not part of them.
UniProt P12956: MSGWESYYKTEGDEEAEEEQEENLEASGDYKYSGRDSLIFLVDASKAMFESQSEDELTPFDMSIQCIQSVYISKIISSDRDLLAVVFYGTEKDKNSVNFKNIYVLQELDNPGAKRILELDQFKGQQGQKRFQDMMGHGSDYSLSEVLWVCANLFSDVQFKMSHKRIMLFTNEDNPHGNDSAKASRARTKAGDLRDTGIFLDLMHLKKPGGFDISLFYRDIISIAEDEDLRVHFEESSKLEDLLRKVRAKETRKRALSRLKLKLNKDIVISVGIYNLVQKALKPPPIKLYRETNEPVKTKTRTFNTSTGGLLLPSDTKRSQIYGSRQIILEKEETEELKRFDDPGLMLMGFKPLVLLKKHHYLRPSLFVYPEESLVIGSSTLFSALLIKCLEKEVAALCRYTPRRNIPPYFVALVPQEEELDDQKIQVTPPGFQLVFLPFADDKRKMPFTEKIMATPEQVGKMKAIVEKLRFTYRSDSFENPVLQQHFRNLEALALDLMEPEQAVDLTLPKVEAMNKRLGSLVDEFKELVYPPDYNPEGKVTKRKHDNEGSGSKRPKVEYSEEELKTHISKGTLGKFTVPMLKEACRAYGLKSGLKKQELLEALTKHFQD

Residue numbers refer to the chain shown, from its start. Results are given in words; binding and its absence hold for the method and conditions named. Binding seen in cells or lysates may run through a third protein. Some binding calls cover weakened binding; strength is not graded here. Sequences can lack the tags named with a protein.

The target in assay [1] is T1, GFP-tagged RQ4-2A (RECQL4 Ser89Ala/Ser251Ala) (human) (UniProt O94761).
T1 sequence: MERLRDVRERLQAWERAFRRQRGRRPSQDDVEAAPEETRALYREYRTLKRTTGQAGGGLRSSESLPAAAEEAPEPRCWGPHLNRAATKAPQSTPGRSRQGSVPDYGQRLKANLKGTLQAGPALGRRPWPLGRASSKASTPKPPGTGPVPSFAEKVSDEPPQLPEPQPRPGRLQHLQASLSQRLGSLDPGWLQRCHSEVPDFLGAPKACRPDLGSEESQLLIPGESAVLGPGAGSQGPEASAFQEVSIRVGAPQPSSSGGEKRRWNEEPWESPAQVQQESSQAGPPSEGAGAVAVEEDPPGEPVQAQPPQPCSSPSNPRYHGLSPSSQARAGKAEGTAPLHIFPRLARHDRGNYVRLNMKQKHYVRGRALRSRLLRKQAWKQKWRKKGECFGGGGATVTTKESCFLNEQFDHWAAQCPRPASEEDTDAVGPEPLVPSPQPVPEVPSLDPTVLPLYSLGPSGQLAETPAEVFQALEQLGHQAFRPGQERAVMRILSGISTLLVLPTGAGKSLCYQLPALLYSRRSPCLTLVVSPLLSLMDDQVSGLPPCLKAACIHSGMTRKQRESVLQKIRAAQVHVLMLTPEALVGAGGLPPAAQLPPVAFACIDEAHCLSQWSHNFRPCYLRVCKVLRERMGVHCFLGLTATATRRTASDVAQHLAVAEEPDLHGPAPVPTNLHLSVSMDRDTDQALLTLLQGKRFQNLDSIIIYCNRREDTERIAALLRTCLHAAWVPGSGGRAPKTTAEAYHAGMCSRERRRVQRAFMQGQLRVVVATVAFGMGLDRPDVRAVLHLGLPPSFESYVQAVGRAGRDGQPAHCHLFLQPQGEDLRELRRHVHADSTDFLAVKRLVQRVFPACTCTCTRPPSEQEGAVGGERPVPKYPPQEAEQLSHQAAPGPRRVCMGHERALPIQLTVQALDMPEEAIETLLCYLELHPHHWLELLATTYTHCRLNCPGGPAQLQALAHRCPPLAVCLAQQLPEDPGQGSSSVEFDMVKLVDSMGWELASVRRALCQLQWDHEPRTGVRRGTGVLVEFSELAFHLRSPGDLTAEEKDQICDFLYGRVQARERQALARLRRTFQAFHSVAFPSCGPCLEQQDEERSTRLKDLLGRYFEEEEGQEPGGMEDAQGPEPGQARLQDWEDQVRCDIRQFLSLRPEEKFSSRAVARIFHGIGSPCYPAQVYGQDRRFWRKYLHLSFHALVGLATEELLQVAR
Briefly: co-IP; GFP-TRAP beads on lysate (2 mg protein) of HEK293T cells expressing GFP-tagged RECQL4 or mutants, overnight at 4 °C; lysis buffer 2 (40 mM Tris-HCl pH 7.4, 100 mM NaCl, 2 mM MgCl2, 0.2% NP-40, 0.3% Triton) with Benzonase; cells irradiated with 10 Gy; asynchronous, or synchronised in G1 with aphidicolin and released 10 h for S/G2; Western blotting.

In assay [2] the target is T2, GFP-tagged RQ4-2D (RECQL4 Ser89Asp/Ser251Asp) (human) (UniProt O94761).
T2 sequence: T1 sequence with A89D, A251D
Described as above.

Regarding Ku70 (from UniProt P12956 1-609), the binding entry in assay [1] and in assay [2] was “binds” throughout.
